# Measurements taken from PubChem BioAssay AID248 (DTP/NCI, 2004).
# The list is a part of this screen's results and no random one: it covers a few groups of compounds. Not every dose and run of a compound is shown. T/C is the treated group as % of the vehicle group. For survival time, the PubChem record calls one and a half times the control and up active, and a quarter to a half above the control has no call in these data; cut-offs in other NCI protocols can differ. Schedule codes are those of the source, read here as Q, the interval in days (D) or hours (H), X, the number of doses. Some entries show no survivor count and are marked so; the dose need not have been tolerated. Some entries were tested several times; the values are given in rising order.
# System: L1210 leukemia ip in BDF1 mice, survival T/C
# Assay: NCI In Vivo Anticancer Drug Screen. Data for tumor model L1210 Leukemia (intraperitoneal) in B6D2F1 (BDF1) mice
# Settings: T/C endpoint: mean survival time, higher T/C = longer survival
# [1] = dose: 0.8 mg/kg/injection, schedule: Q01DX009 (ip), vehicle: other
# [2] = dose: 1.6 mg/kg/injection, schedule: Q01DX009 (ip), vehicle: other
# [3] = dose: 0.1 mg/kg/injection, schedule: Q01DX009 (ip), vehicle: other
# [4] = dose: 0.2 mg/kg/injection, schedule: Q01DX009 (ip), vehicle: other
# [5] = dose: 0.4 mg/kg/injection, schedule: Q01DX009 (ip), vehicle: other
compound,measurement,setting,value
CC(=O)OC[C@]12CCC(C)=C[C@H]1O[C@@H]1[C@H](O)[C@@H](OC(=O)CCl)[C@@]2(C)[C@@]12CO2,T/C,[1],179 % of control [survivor count not shown]
same,T/C,"dose: 1.2 mg/kg/injection, schedule: Q01DX009 (ip), vehicle: other",138 % of control [survivor count not shown]
same,T/C,[2],94 % of control [survivor count not shown]
CC(=O)OC[C@]12CCC(C)=C[C@H]1O[C@H]1C(=O)[C@@H](OC(C)=O)[C@@]2(C)[C@]12CO2,T/C,"dose: 0.01 mg/kg/injection, schedule: Q01DX009 (ip), vehicle: other",104 % of control [survivor count not shown]
same,T/C,"dose: 0.02 mg/kg/injection, schedule: Q01DX009 (ip), vehicle: other",114 % of control [survivor count not shown]
same,T/C,"dose: 0.05 mg/kg/injection, schedule: Q01DX009 (ip), vehicle: other",126 % of control [survivor count not shown]
same,T/C,[3],138 % of control [survivor count not shown]
same,T/C,[4],152 % of control [survivor count not shown]
same,T/C,[5],164 % of control [survivor count not shown]
same,T/C,[1],176 % of control [survivor count not shown]
same,T/C,[2],149 % of control [survivor count not shown]
C/C=C/C(=O)OC[C@]12CCC(C)=C[C@H]1O[C@@H]1[C@H](O)[C@@H](O)[C@@]2(C)[C@@]12CO2,T/C,[4],127 % of control [survivor count not shown]
same,T/C,[5],134 % of control [survivor count not shown]
same,T/C,[1],150 % of control [survivor count not shown]
CC(=O)OC[C@]12C[C@H](OC(=O)CC(C)C)C(C)=C[C@H]1OC1[C@H](O)[C@@H](OC(C)=O)[C@@]2(C)[C@@]12CO2,T/C,"dose: 0.4 mg/kg/injection, schedule: Q01DX009 (ip), vehicle: Klucel (hydroxypropylcellulose) (HPC)",109 % of control [survivor count not shown]
same,T/C,[5],138 % of control [survivor count not shown]
same,T/C,"dose: 0.62 mg/kg/injection, schedule: Q01DX009 (ip), vehicle: Klucel (hydroxypropylcellulose) (HPC)","112 [survivor count not shown], 115 [survivor count not shown], 145 % of control [survivor count not shown]"
same,T/C,"dose: 0.62 mg/kg/injection, schedule: Q01DX009 (ip), vehicle: other",150 % of control [survivor count not shown]
same,T/C,"dose: 0.93 mg/kg/injection, schedule: Q01DX009 (ip), vehicle: Klucel (hydroxypropylcellulose) (HPC)",120 [survivor count not shown] and 121 % of control [survivor count not shown]
same,T/C,"dose: 0.93 mg/kg/injection, schedule: Q01DX009 (ip), vehicle: other",149 % of control [survivor count not shown]
same,T/C,"dose: 1.25 mg/kg/injection, schedule: Q01DX001 (ip), vehicle: Klucel (hydroxypropylcellulose) (HPC)",104 % of control [survivor count not shown]
same,T/C,"dose: 1.25 mg/kg/injection, schedule: Q04DX003 (ip), vehicle: Klucel (hydroxypropylcellulose) (HPC)",117 % of control [survivor count not shown]
same,T/C,"dose: 1.39 mg/kg/injection, schedule: Q01DX009 (ip), vehicle: Klucel (hydroxypropylcellulose) (HPC)",125 % of control [survivor count not shown]
same,T/C,"dose: 2.5 mg/kg/injection, schedule: Q01DX001 (ip), vehicle: Klucel (hydroxypropylcellulose) (HPC)",109 % of control [survivor count not shown]
same,T/C,"dose: 5.0 mg/kg/injection, schedule: Q01DX001 (ip), vehicle: Klucel (hydroxypropylcellulose) (HPC)",111 % of control [survivor count not shown]
CC(=O)O[C@H]1C[C@@H]2OC3C=C(C)CCC3(C)[C@@]1(C)[C@@]21CO1 (stereo partly specified),T/C,"dose: 30.0 mg/kg/injection, schedule: Q01DX015 (ip), vehicle: carboxymethylcellulose (CMC)",102 % of control [survivor count not shown]
same,T/C,"dose: 60.0 mg/kg/injection, schedule: Q01DX015 (ip), vehicle: carboxymethylcellulose (CMC)",100 % of control [survivor count not shown]
same,T/C,"dose: 120.0 mg/kg/injection, schedule: Q01DX015 (ip), vehicle: carboxymethylcellulose (CMC)",97 % of control [survivor count not shown]
same,T/C,"dose: 240.0 mg/kg/injection, schedule: Q01DX015 (ip), vehicle: carboxymethylcellulose (CMC)",100 % of control [survivor count not shown]
CC1=C[C@H]2O[C@H]3[C@H](O)[C@@H](OC(=O)CCl)[C@](C)([C@@]2(COC(=O)CCl)CC1)[C@@]31CO1,T/C,[3],104 % of control [survivor count not shown]
same,T/C,[4],111 % of control [survivor count not shown]
same,T/C,[5],126 % of control [survivor count not shown]
same,T/C,[1],129 % of control [survivor count not shown]
same,T/C,[2],131 % of control [survivor count not shown]
same,T/C,"dose: 3.2 mg/kg/injection, schedule: Q01DX009 (ip), vehicle: other",149 % of control [survivor count not shown]
same,T/C,"dose: 6.4 mg/kg/injection, schedule: Q01DX009 (ip), vehicle: other",144 % of control [survivor count not shown]
